Laboratory results published in paper PMC6661766, “Antimicrobial, antioxidant and cytotoxic evaluation of diazenyl chalcones along with insights to mechanism of interaction by molecular docking studies” (BMC Chemistry, 2019).

What follows are compounds tested on A549 human lung cancer cell line (assay: MTT cytotoxicity assay, A549). Conditions: IC50 ratio of normal cell line to carcinoma cell line.
Format: cell-based
Protocol: The cell lines employed in the investigation were purchased from the National Centre for Cell Sciences (NCCS), Pune, India. The cell lines were cultured in DMEM fortified with 10% FBS, L-glutamine, sodium bicarbonate, and solution of antibiotics (streptomycin 100 μg ml^−1 + penicillin-100 U ml^−1). The culture of cell lines was stored under 5% CO2 incubation at 37 °C.
The compounds showing maximum activity (antimicrobial and antioxidant potential) were screened for cytotoxicity against A549 and HEK cell lines using MTT assay. Initially, 96-well microculture plate was seeded with 1 × 10^4 cells in 100 µl/well DMEM/MEM, supplemented with 10% FBS followed by incubation at a temperature of 37 °C for a period of 24 h under 5% CO2 atmosphere. After that, the test compounds and camptothecin were added to the cells to achieve a concentration of 10, 25, 50 and 100 µg. MTT reagent (10 µl) of concentration of 5 mg ml^−1 added to all the wells after the duration of 48 h. The plate was incubated further for 4 h followed by careful removal of supernatant from each well. To dissolve the formazan crystals, 100 µl of DMSO was added, and the ELISA reader was used to check the absorbance at 570 nm wavelength. In order to calculate the IC50 concentration, the following equation, i.e. A = Bx + C, was used. In this case, A = 50, while the values B and C values were obtained from the survival curve plot. This study was carried out in duplicate.

Going from `O=C(/C=C\c1ccc(Cl)cc1Cl)c1cccc(N=Nc2cccc(Cl)c2Cl)c1O` [Compound C-19, (2Z)-3-(2,4-Dichlorophenyl)-1-(3-((2,3-dichlorophenyl)diazenyl)-2-hydroxyphenyl)prop-2-en-1-one] to `O=Cc1ccc(/C=C\C(=O)c2cccc(N=Nc3cccc(Cl)c3Cl)c2O)cc1` [Compound C-25, 4-((1Z)-3-(3-((2,3-Dichlorophenyl)diazenyl)-2-hydroxyphenyl)-3-oxoprop-1-en-1-yl)benzaldehyde], the “Ratio (HEK/A549)” value rises from 1.58 to 15.

First: O=C(/C=C\c1cc(Br)ccc1O)c1ccc(N=Nc2ccc([N+](=O)[O-])cc2Cl)c(O)c1 [Compound C-22, (2Z)-3-(5-Bromo-2-hydroxyphenyl)-1-(4-((2-chloro-4-nitrophenyl)diazenyl)-3-hydroxyphenyl) prop-2-en-1-one]
Second: COc1ccccc1/C=C\C(=O)c1ccc(N=Nc2c(O)cccc2O)cc1 [Compound C-27, (2Z)-1-(4-((2,6-Dihydroxyphenyl)diazenyl)phenyl)-3-(2-methoxyphenyl)prop-2-en-1-one]
The “Ratio (HEK/A549)” value of the first is lower: 1.90 for the first, 2.67 for the second.

Going from `O=Cc1ccc(/C=C\C(=O)c2ccc(N=Nc3c(O)cccc3O)cc2)cc1` [Compound C-23, 4-((1Z)-3-(4-((2,6-Dihydroxyphenyl)diazenyl)phenyl)-3-oxoprop-1-en-1-yl)benzaldehyde] to `O=C(/C=C\c1ccco1)c1ccc(N=Nc2c(O)cccc2O)cc1` [Compound C-24, (2Z)-1-(4-((2,6-Dihydroxyphenyl)diazenyl)phenyl)-3-(furan-2-yl)prop-2-en-1-one], the “Ratio (HEK/A549)” value rises from 1.11 to 2.59.

For `CC[C@@]1(O)C(=O)OCc2c1cc1n(c2=O)Cc2cc3ccccc3nc2-1` [Std, camptothecin, reference compound], the “Ratio (HEK/A549)” value was 1.03.
